# About 110 (0.058%) of roughly 190,000 compounds were called active. The shares of active, inactive and inconclusive entries below differ from those in the screen.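 Rule for the calls: active = fluorescent GTP binding to Rab7 beads changed by at least 20 points from the 100% baseline, either direction, mostly lower; inconclusive = compound itself probably fluorescent, or too few beads counted; inactive = the rest.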
# System: Rab7 GTPase wild type (dog), Bodipy-FL-GTP binding
# Assay: modulators of GTP binding to Rab7, primary screen, biochemical, wildtype, multiplex bead flow cytometry (AID 758);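 note: median green fluorescence of bound Bodipy-FL-GTP per Rab7 bead population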
# Conditions: GST-Rab7 beads, fluorescent GTP binding, at 10 µM, actives lie on both sides, untreated = 100%, excess cold GTP = 0%
row,SMILES,GTP binding activity (percent of control)
1,C/C(=N/NC(=O)CNS(=O)(=O)c1ccc(C)cc1)c1cccc([N+](=O)[O-])c1,inactive: 92%
2,COc1cc(CNCc2cccs2)ccc1OCc1ccccc1,inconclusive: 102%
3,O=C(COC(=O)c1cc(Br)ccc1Cl)NC1CCCC1,inactive: 107%
4,Cc1nc(-c2cn[nH]c2)c2cc(C)oc2n1,inconclusive: 92%
5,CCOC(=O)N1CCC(NC(=O)c2ccc3nc4ccccc4c(=O)n3c2)CC1,inconclusive: 88%
6,Cc1cc(C)cc(Oc2nc(C(F)(F)F)nc3ccccc23)c1,inconclusive: 96%
7,CCCc1cc(-c2nc(N)ncc2-c2csc(C)n2)c(O)cc1OC,inconclusive: 94%
8,O=C(CCCN1C(=O)/C(=C/c2cccc(Br)c2)SC1=S)Nc1ccccn1,inconclusive: 94%
9,CCCCN(CCCC)CC(O)CN1C(=O)NC(C)(C)C1=O (stereo not given),inconclusive: 106%
10,COc1cc(SC#N)ccc1N=Cc1c(C)[nH]n(-c2ccc(C)c(C)c2)c1=O,inactive: 89%
11,c1ccc(-c2noc(-c3cccc4ccccc34)n2)nc1,inconclusive: 93%
12,O=C(NCC(=O)N(c1cnc2ccccc2c1)C(C(=O)NC1CCCC1)c1ccncc1)c1ccco1 (stereo not given),inconclusive: 102%
13,Cc1nc2ccccc2c2oc(C(=O)Nc3ccc4c(c3)OCCO4)cc12,inconclusive: 84%
14,Nn1c(SCC(=O)Nc2ccc3c(c2)OCO3)nnc1-c1ccncc1,inconclusive: 93%
15,COc1cccc2cc(/C(C)=N/NC(=O)c3ccco3)oc12,inconclusive: 91%
16,O=C(COC(=O)CCc1nc2ccccc2s1)NC(=O)NCc1ccco1,inactive: 95%
17,O=C(NCc1ccc2c(c1)OCO2)C1CCCN1S(=O)(=O)c1ccc(Cl)cc1 (stereo not given),inactive: 102%
18,CC(C)CNC(=O)C1CCCN(C(=O)NCc2ccccc2)C1 (stereo not given),inconclusive: 98%
19,O=C(O)c1ccc(Cl)c(S(=O)(=O)Nc2cccc(C(=O)Nc3cccc(C(F)(F)F)c3)c2)c1,inactive: 93%
20,Cc1cccc(NS(=O)(=O)c2cc([N+](=O)[O-])ccc2C)n1,inconclusive: 101%
21,COc1ccccc1NC(=O)Cn1c(O)c(N=NC(=O)c2ccccc2O)c2ccccc21,inconclusive: 93%
22,C=CCn1c(=O)c2ccccc2n2c(SCC(=O)NCc3cccs3)nnc12,inconclusive: 108%
23,Cc1cc(N2CCN(C)CC2)nc2ccc(NC(=S)NCc3cccs3)cc12,inconclusive: 121%
24,CCCCOc1ccc2c(c1)/C(=C(\C(Cl)=C(Cl)Cl)[N+](=O)[O-])N2,inactive: 96%

row,SMILES,GTP binding activity (percent of control)
1,CC1=NN(C(=O)c2ccc(Cn3nc(C)cc3C)o2)C(O)(C(F)(F)F)C1 (stereo not given),inactive: 105%
2,COCCCNC(=O)CCCC(=O)NCCCOC,inconclusive: 109%
3,COc1cc(=O)n(C)c2ccccc12,inconclusive: 89%
4,Cc1nc2c(N=Nc3ccccc3F)c(N)nn2c(N)c1C#N,inconclusive: 96%
5,Cn1nnc(NC(=S)NC(=O)c2ccc(-c3ccc(Br)cc3)o2)n1,inactive: 96%
6,Nc1[nH]ncc1C(=O)Nc1cccc(C(F)(F)F)c1,inconclusive: 101%
7,CCOC(=O)C1CCCN(C(=O)CCCOc2cc(=O)n(C)c3ccccc23)C1 (stereo not given),inconclusive: 95%
8,CCCC/C(O)=C1\C(=O)CC(C)(C)CC1=Nc1ccccc1OC,inconclusive: 106%
9,Cc1nc2ccccc2nc(=O)c1NNc1ccc([N+](=O)[O-])cc1,inconclusive: 96%
10,N#Cc1ccc(-c2ccc(F)cc2)nc1Sc1ccccc1,inconclusive: 103%
11,COc1cc(CC(C#N)(CO)c2nc3ccccc3[nH]2)ccc1OC(F)F (stereo not given),inactive: 98%
12,CC(=O)Nc1ccc(NC(=O)c2ccc(C)c(S(=O)(=O)Nc3cccc(C)c3)c2)cc1,inactive: 95%
13,Oc1c(CN2CCN(c3ccccn3)CC2)cc(Cl)c2cccnc12,inconclusive: 98%
14,Nc1nnc(-c2ccc(Cl)cc2Cl)s1,inconclusive: 92%
15,CC1(C)CC2CC(C)(CN2C(=O)c2cccs2)C1 (stereo not given),inactive: 100%
16,COC(=O)c1cc(NC(=O)c2cccc([N+](=O)[O-])c2C)ccc1Cl,inactive: 100%
17,CCOC(=O)c1cc(NC(=O)Nc2cc(C)ccn2)c(C)nc1C,inconclusive: 95%
18,Clc1ccc(-c2n[nH]c3c2CCC3)cc1Cl,inconclusive: 101%
19,Nc1ccc(S(=O)(=O)Nc2ccc(S(N)(=O)=O)cc2)cc1,inconclusive: 95%
20,CC(=O)c1cccc(NC(=O)Cn2cc3c(n2)CCCC3)c1,inconclusive: 101%
21,Cc1cccc(C(=O)OCC(=O)NCC(C)C)c1O,inactive: 96%
22,O=C(COc1ccc(C(=S)N2CCOCC2)cc1)N1CCCC1,inconclusive: 105%
23,CCOC(=O)c1c(NC(=O)c2c(-c3ccccc3)noc2C)sc(C)c1-c1ccccc1,inconclusive: 100%
24,Nc1n[nH]c(-c2ccccc2)n1,inconclusive: 102%

row,SMILES,GTP binding activity (percent of control)
1,O=C(COC(=O)c1cc(S(=O)(=O)N2CCCCC2)ccc1N1CCOCC1)NCCc1ccc(F)cc1,inactive: 87%
2,Cc1cc(OCCCCn2ccnc2)cc(C)c1Cl,inactive: 101%
3,Cc1ccc2nc(NC(=O)C3CCN(S(=O)(=O)c4cc([N+](=O)[O-])ccc4Cl)CC3)sc2c1,inconclusive: 101%
4,O=C(/C=C/c1ccco1)Oc1cc(Br)cc(/C=N/NC(=O)c2ccccc2O)c1,inconclusive: 99%
5,COc1cccc(NC(=O)CSC(N)=O)c1,inactive: 95%
6,Cc1ccnc2nc(C(=O)OCCOc3ccc(Cl)cc3)nn12,inconclusive: 91%
7,OC(CNCc1ccccn1)c1ccccc1 (stereo not given),inconclusive: 101%
8,CC(C)(C)NC(=O)CC(CC(=O)O)c1ccccc1 (stereo not given),inconclusive: 103%
9,CC1CC(C)CN(C(=O)C(NS(=O)(=O)c2ccc(Br)s2)c2ccccc2)C1 (stereo not given),inactive: 98%
10,CCOc1cc(CNc2ccc3c(c2)OCCO3)cc(Br)c1OC,inconclusive: 102%
11,COc1ccc(-n2nc(C(=O)NCC(=O)Nc3ccccn3)c3ccccc3c2=O)cc1Cl,inconclusive: 113%
12,CC(=O)Nc1cn(C(C)=O)c(C)n1,inconclusive: 107%
13,CCN1CCN(CC(=O)N2N=C(c3ccc(OC)cc3)CC2c2ccc(OC)cc2)C(=O)C1=O (stereo not given),inactive: 96%
14,CCOC(=O)N1CCN(C(=O)C(c2ccccc2)c2ccccc2)CC1,inconclusive: 102%
15,CCCCn1c(=O)[nH]c(=O)c2c1nc(-c1ccc(C#N)cc1)n2C1CCCC1,inconclusive: 102%
16,Cc1nc2c(nnn2Cc2ccccc2)c(=O)[nH]1,inconclusive: 95%
17,O=C(COC(=O)/C=C/c1ccc([N+](=O)[O-])cc1)NC(c1ccccc1)c1ccccc1,inactive: 99%
18,Cc1cc(-c2ccccc2)[nH]c(=O)c1S(=O)(=O)c1ccc(Cl)cc1,inconclusive: 96%
19,COC(=O)c1cccn(CC(=O)c2ccc(Cl)cc2)c1=O,inactive: 100%
20,O=[N+]([O-])c1ccc(C=Nc2ccc(Cl)cc2Cl)s1,inconclusive: 111%
21,Cc1cccc(NC2=CC(=O)CC(C)(C)C2)c1C,inactive: 93%
22,O=C(COc1ccc(Cl)cc1Cl)N1CCCCCC1,inconclusive: 106%
23,O=C(Cc1ccc(F)cc1)Nc1ccccc1Sc1ccccc1,inconclusive: 98%
24,N#CCc1nn(-c2ccccc2)c(N)c1C#N,inconclusive: 94%

row,SMILES,GTP binding activity (percent of control)
1,Cc1cc(C(=O)NNC(=S)NC(C)c2ccccc2)c2ccccc2n1 (stereo not given),inconclusive: 114%
2,CSc1nc2ccc(NC(=O)c3c(F)cccc3F)cc2s1,inconclusive: 95%
3,CN1CC(=O)NC1=NC(=O)c1ccc(Cl)c(S(=O)(=O)N2CCCCCC2)c1,inactive: 89%
4,CCOC(=O)N1CCC(Nc2ccc3nnc(-c4ccccc4)n3n2)CC1,inconclusive: 90%
5,Cc1cc(C)n(-c2nc(SCC(=O)Nc3nccs3)c3c4c(sc3n2)COC(C)(C)C4)n1,inconclusive: 95%
6,O=C(COC(=O)c1cc(Br)c(Br)s1)NCCC1=CCCCC1,inactive: 99%
7,Cc1ccc2cccc(OCC(=O)N3CC(C)CC(C)C3)c2n1 (stereo not given),inconclusive: 93%
8,Cc1cc(NC(=O)CSc2nc(-c3ccccc3)c(C#N)c(=O)[nH]2)no1,active: 77%
9,Cc1cc(C)c2c(n1)sc1c(O)cc(=O)[nH]c12,inactive: 100%
10,O=C(c1cnccn1)N1CCc2ccccc2C1,inactive: 112%
11,O=[N+]([O-])c1cccc(-c2nnc(SCc3cccnc3)o2)c1,inconclusive: 95%
12,COc1ccccc1C(=O)NCCc1c(C)[nH]c2c(C)ccc(F)c12,inactive: 101%
13,Cn1c(=O)c2c(nc(Br)n2CCCc2ccccc2)n(C)c1=O,inconclusive: 93%
14,O=c1c2ccccc2oc2nc(-c3ccco3)n(Cc3ccccc3)c(=O)c12,inconclusive: 103%
15,CC1(C)CC(=O)C=C(C(=O)N2CCCC(C(=O)c3cccc(Cl)c3)C2)O1 (stereo not given),inactive: 98%
16,N#Cc1c(Nc2ccccc2)c(/C=N/NCCO)c[nH]c1=O,inactive: 96%
17,CCC(=O)Nc1ccc(C(=O)CSc2nnc(-c3ccc(O)cc3)n2CC2CCCO2)cc1 (stereo not given),inactive: 97%
18,CCC(C)(C)C(=O)Nc1cccc(Cl)c1C,inactive: 106%
19,Cc1ccc(-c2nnc(SCC(=O)NC(=O)Nc3ccc(C)cc3C)n2N)cc1,inconclusive: 99%
20,Cc1cc(=O)n2nc(N3CCCC3C(=O)NCc3ccccn3)sc2n1 (stereo not given),inconclusive: 102%
21,Nc1nc(-c2ccccc2)nc2sc3c(c12)CCCC3,inactive: 99%
22,CS(=O)(=O)N(CC(=O)NCc1cccnc1)C1CCCCC1,inactive: 100%
23,CCOC(=O)NC1(C(F)(F)F)C(=O)N(Cc2ccccc2)C2=C1C(=O)CC(C)(C)C2 (stereo not given),inactive: 101%

# An excerpt from above in order of SMILES length, low to high:
row,SMILES,GTP binding activity (percent of control)
16,N#Cc1c(Nc2ccccc2)c(/C=N/NCCO)c[nH]c1=O,inactive: 96%
13,Cn1c(=O)c2c(nc(Br)n2CCCc2ccccc2)n(C)c1=O,inconclusive: 93%
11,O=[N+]([O-])c1cccc(-c2nnc(SCc3cccnc3)o2)c1,inconclusive: 95%
17,CCC(=O)Nc1ccc(C(=O)CSc2nnc(-c3ccc(O)cc3)n2CC2CCCO2)cc1 (stereo not given),inactive: 97%

# Structures above that contain a COOH group, in the order listed:
row,SMILES,GTP binding activity (percent of control)
19,O=C(O)c1ccc(Cl)c(S(=O)(=O)Nc2cccc(C(=O)Nc3cccc(C(F)(F)F)c3)c2)c1,inactive: 93%
8,CC(C)(C)NC(=O)CC(CC(=O)O)c1ccccc1 (stereo not given),inconclusive: 103%

# — PubChem BioAssay AID758 (NMMLSC, 2007)
